# Data as given in PubChem BioAssay AID504834 (National Center for Advancing Translational Sciences (NCATS), 2011).
# Screen size: about 320,000 compounds; about 22,000 (6.9%) were called active. The shares of active, inactive and inconclusive entries below differ from those in the screen. Calls follow the shape of the dose curve; as a rule, active = well fitted inhibition curve with a large enough effect; inconclusive = small, poorly fitted or top-dose-only effect, or another doubt; inactive = no such curve, though single readings can be large or run the other way. Potencies of inconclusive entries are doubtful fits and often do not repeat.
# Assay: Primary qHTS for delayed death inhibitors of the malarial parasite plastid, 96 hour incubation
# Settings: P. falciparum luciferase reporter growth; series mostly up to 28.7 µM; activity change, negative = inhibition: at the top concentration
# Summary of the method: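 Readout is luminescence from an integrated firefly luciferase in P. falciparum. Red cells, 2% hematocrit and 0.05% parasitemia final, were cultured with compound through two parasite generations (96 hours) at 37 C, 5% CO2.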
# % is scaled to controls: 0 for no effect and ±100 for the full control effect; potency is read from the fitted curve at half-maximal effect.
SMILES,Potency,"activity change, negative = inhibition"
CCCCn1c(=NC(=O)c2ccc3c(c2)OCO3)c(C#N)cc2c(=O)n3cccc(C)c3nc21,"inconclusive: 0.415 µM [inhibitor, partial curve]",–
Clc1ccc(-c2nnnn2-c2ccc(Cl)cc2)cc1,–,inactive: 4.21%
Cc1cccc(Cl)c1NC(=O)N1CCN(c2ccnc3cc(Cl)ccc23)CC1,"inconclusive: 2.08 µM [inhibitor, full curve]",–
CCc1ccc2oc(=O)cc(CN3CCN(c4ccc(F)cc4)CC3)c2c1,"inconclusive: 9.28 µM [inhibitor, single point]",–
CCN(CC)S(=O)(=O)c1ccc2[nH]cc(C(=O)NCCc3ccc(OC)c(OC)c3)c(=O)c2c1,active: 8.28 µM,–
CCSc1nnc(-c2ccc(Cl)cc2)c2ccccc12,active: 0.0928 µM,–
CC[C@@]12C(=O)N(c3cccc(Cl)c3)C(=O)N1[C@H](c1ccc(Br)cc1)[C@@H]1C(=O)N(C(C)(C)C)C(=O)[C@@H]12,"inconclusive: 7.38 µM [inhibitor, partial curve, poor fit]",–
Nc1c(C(=O)O)sc2nc(-c3ccc(F)cc3)cc(-c3ccccc3)c12,"inconclusive: 18.5 µM [inhibitor, single point]",–
CCOc1cccc(-c2c(C(=O)N/N=C/c3cccnc3)nnn2-c2nonc2N)c1,"inconclusive: 18.5 µM [inhibitor, single point]",–
Cc1ccc(S(=O)(=O)Nc2c(C)nc3nc(C)[nH]n3c2=O)cc1,"inconclusive: 5.22 µM [inhibitor, partial curve, poor fit]",–
CC(=O)c1ccc(OCc2cc(C(=O)NC3CCCCC3)no2)cc1,–,inactive: 0%
Cc1cccc(N=Cc2cc(Br)cc(Cl)c2O)c1,"inconclusive: 2.62 µM [inhibitor, full curve, poor fit]",–
Cc1ccccc1N1C(=S)NC2c3ccccc3OC1(C)C2C(=O)N(C)C (stereo unspecified),"inconclusive: 11.7 µM [inhibitor, single point]",–
CC(=O)OCCn1c2nc(=O)[nH]c(=O)c-2nc2cc(C)c(C)cc21,"inconclusive: 13.1 µM [inhibitor, partial curve]",–
N#C/C(=N\Nc1cccc(F)c1)C(=N)N1CCCCCC1,"inconclusive: 11.7 µM [inhibitor, single point]",–
CCN1CCN(C(=O)CCc2nnc3ccc(N4CCC5(CC4)OCCO5)nn23)CC1,"inconclusive: 14.7 µM [inhibitor, single point]",–
CCCCOCCCNC(=O)c1ccc([N+](=O)[O-])c(C)c1,–,inactive: 15.1%
Nc1ccc2nc(CCCO)[nH]c2c1,–,inactive: 28.4%
Cc1ccc(C)c(-c2nnc(NC(=O)Cc3ccc(F)cc3)o2)c1,"inconclusive: 16.5 µM [inhibitor, partial curve, poor fit]",–
Cc1ccsc1C=Nc1ccc(O)cc1,–,inactive: 16.5%
Nc1cc(OC(=O)c2cccs2)nn1S(=O)(=O)c1ccccc1,"inconclusive: 0.928 µM [inhibitor, partial curve, poor fit]",–
CCCc1nnc(NC(=O)c2ccc(S(=O)(=O)N(C)c3ccccc3OC)cc2)s1,active: 13.1 µM,–
C[n+]1cc(-c2ccccc2)n2c1CCCCC2,active: 1.65 µM,–
O=C(Cc1ccc(F)cc1)N/N=C/c1ccc(-c2ccc(Cl)c(C(=O)O)c2)o1,–,inactive: 1.82%
CC(C)S(=O)(=O)C/C(N)=N/OC(=O)c1cc(Cl)cc(Cl)c1,"inconclusive: 18.5 µM [inhibitor, partial curve, poor fit]",–
COc1ccc(N2C(=O)C3CCCN3C2c2ccccc2F)cc1 (stereo unspecified),"inconclusive: 20.8 µM [inhibitor, partial curve, poor fit]",–

# Single values from the entries so far:
# Cc1cccc(Cl)c1NC(=O)N1CCN(c2ccnc3cc(Cl)ccc23)CC1 | Potency: inconclusive: 2.08 µM [inhibitor, full curve]
# CC(=O)c1ccc(OCc2cc(C(=O)NC3CCCCC3)no2)cc1 | activity change, negative = inhibition: inactive: 0%
# Nc1cc(OC(=O)c2cccs2)nn1S(=O)(=O)c1ccccc1 | Potency: inconclusive: 0.928 µM [inhibitor, partial curve, poor fit]

# 2 successive compounds already listed, for reference:
SMILES,Potency,"activity change, negative = inhibition"
O=C(Cc1ccc(F)cc1)N/N=C/c1ccc(-c2ccc(Cl)c(C(=O)O)c2)o1,–,inactive: 1.82%
CC(C)S(=O)(=O)C/C(N)=N/OC(=O)c1cc(Cl)cc(Cl)c1,"inconclusive: 18.5 µM [inhibitor, partial curve, poor fit]",–

# Later entries.

SMILES,Potency,"activity change, negative = inhibition"
Cc1cc(C(=O)O)ccc1-c1ccc(CO)o1,"inconclusive: 3.29 µM [inhibitor, partial curve, poor fit]",–
COc1ccc(OC)c(NC(=O)CC(Cc2ccccc2OC)C(=O)O)c1 (stereo unspecified),"inconclusive: 5.86 µM [inhibitor, partial curve, poor fit]",–
CN(C)S(=O)(=O)Oc1ccc(Cl)cc1C(=O)Nc1cccc(C(F)(F)F)c1,"inconclusive: 18.5 µM [inhibitor, single point]",–
O=C(CN(Cc1cccs1)C(=O)CCC(=O)Nc1nccs1)NCc1ccccc1,–,inactive: -21.9%
CC(C)CNC(=O)C(=O)NCc1ccccn1,"inconclusive: 7.38 µM [inhibitor, partial curve, poor fit]",–
COc1cccc(/C(=N/O)C2CC2c2ccc(Cl)cc2)c1 (stereo unspecified),–,inactive: 48.5%
CCN(CC(=O)Nc1cc(Cl)ccc1C)C(=O)c1ccc2c(c1)NC(=O)C(C)S2 (stereo unspecified),–,inactive: -10.3%
COc1cc(/C=C2\NC(=S)NC2=O)ccc1OCc1cccc(C(=O)O)c1,–,inactive: 34.9%
CCOC(=O)c1sc2cccc(Cl)c2c1N,–,inactive: 20.4%
CCc1ccc(C(=O)NNc2ccc(F)cc2F)cc1,–,inactive: 27.2%
CCOc1ccc2[nH]c(=O)c(C(c3nnnn3Cc3ccco3)N3CCCC(C)C3)cc2c1 (stereo unspecified),–,inactive: 22.7%
CN(C)S(=O)(=O)N1CCC(Oc2ccc(C(=O)NCc3cnn(C)c3)cc2)CC1,"inconclusive: 11.7 µM [inhibitor, partial curve, poor fit]",–
Cc1ccc(NS(=O)(=O)c2ccc(N/N=C/c3ccncc3)c([N+](=O)[O-])c2)c(C)c1,"inconclusive: 11.7 µM [inhibitor, single point]",–
CCCCC1(C)Nc2ccccc2-c2nc3ccccc3n21 (stereo unspecified),active: 1.31 µM,–
O=C(Cc1c(F)cccc1Cl)NCc1cccnc1,–,inactive: 195%
S=C1CN=C(c2ccccc2Cl)c2cc(Cl)ccc2N1,"inconclusive: 16.5 µM [inhibitor, single point]",–
O=C1C=C(Nc2ccccc2)c2ccccc2C1=O,–,inactive: 210%
COc1cccc(-c2ccc(=O)n(CC(=O)Nc3ccc(S(=O)(=O)NCC(C)C)cc3)n2)c1,"inconclusive: 11.7 µM [inhibitor, single point]",–
CC1CCCN(C(=O)CSc2nnc(-c3ccncc3)n2C)C1 (stereo unspecified),–,inactive: 0%
O=C(CN1C(=O)CCC1=O)Nc1nc(-c2cccs2)cs1,–,inactive: 3.21%
Cc1oc(-c2cccc(Cl)c2)nc1CS(=O)(=O)CC(=O)NC1CC1,"inconclusive: 0.329 µM [inhibitor, full curve]",–
Clc1ccccc1-c1ccc2ncnc(NCc3cccnc3)c2c1,"inconclusive: 18.5 µM [inhibitor, single point]",–
CCOc1cc(C=C(C(=O)OC)C(=O)OC)ccc1OCc1ccc([N+](=O)[O-])cc1,–,inactive: -2.62%
Cc1cccc(NC(=O)C(C)N2C(=O)C3C4CC(C(Br)C4Br)C3C2=O)c1 (stereo unspecified),–,inactive: 104%
Cc1ccc(C(=O)NCCSc2ccc(Cl)cc2)cc1[N+](=O)[O-],active: 4.15 µM,–
Cc1csc(NC(=O)CCC(=O)N(CC(=O)NC2CCCCC2)c2ccccc2)n1,–,inactive: 48.2%

SMILES,Potency,"activity change, negative = inhibition"
Cc1nccc2[nH]c(=O)c(C(=O)NCCCN(C)C3CCCCC3)cc12,–,inactive: 14.3%
COC(=O)c1nc2n(n1)C(c1ccccc1OC)C1=C(CCCC1=O)N2 (stereo unspecified),"inconclusive: 9.28 µM [inhibitor, partial curve]",–
Cc1nc(N2CCC(C)CC2)c2c(C)c(C(=O)O)sc2n1,–,inactive: -6.42%
Cc1ccc(NC(=O)NCC2CCN(Cc3cc(C)ccc3Cl)CC2)c(C)c1,"inconclusive: 18.5 µM [inhibitor, single point]",–
Cc1nc([N+](=O)[O-])cn1-c1ccc(N)cc1,active: 11.7 µM,–
CCCNc1c(NS(=O)(=O)c2ccc(Br)cc2)c(=O)oc2ccccc12,"inconclusive: 20.8 µM [inhibitor, single point]",–
Cc1ccc2ccc3ccc(C)nc3c2n1,–,inactive: 17.9%
c1cn(C23CC4CC(CC(C4)C2)C3)cn1,"inconclusive: 13.1 µM [inhibitor, single point]",–
Cc1cc(C)n2c(SCc3ccc(Cl)cc3Cl)nnc2n1,"inconclusive: 14.7 µM [inhibitor, single point]",–
CC(=O)Nc1ccc(S(=O)(=O)N(Cc2ccco2)Cc2cc3ccccc3[nH]c2=O)cc1,"inconclusive: 18.5 µM [inhibitor, single point]",–
COc1cc(C(CCN2CCCC(C)C2)c2c(OC)cc(OC)c3c2OC(=O)CC3c2ccc(N(C)C)cc2)cc(OC)c1OC (stereo unspecified),active: 10.4 µM,–
O=C(O)CNC(=S)N(Cc1ccccc1F)C1CCCCC1,"inconclusive: 4.65 µM [inhibitor, partial curve, poor fit]",–
CCc1ccc(OC(=O)c2ccn(CC)n2)cc1,"inconclusive: 11.7 µM [inhibitor, single point]",–
COc1ccc(NC(=O)c2ccc(=O)[nH]c2)cc1S(=O)(=O)N1CCOCC1,–,inactive: 5.49%
O=C(Nc1ccncc1)c1ccc(C(=O)Nc2ccncc2)cc1,–,inactive: 72.9%
COc1ccccc1NC(=O)C(=O)N/N=C/c1ccc([N+](=O)[O-])s1,active: 1.65 µM,–
O=C(COc1ccc(F)cc1)NCCCn1ccnc1,–,inactive: -2.45%
CC(C)(C)OC(=O)N/N=C\C=C\c1ccc2c(c1)OCO2,active: 3.7 µM,–
COc1cccc(-c2sc3ccc(OC)cc3c2C#CCCO)c1,"inconclusive: 16.5 µM [inhibitor, single point]",–
Cc1ccc(CN2CCC(Oc3ccc(C(=O)NCc4ccccn4)cc3)CC2)o1,–,inactive: 39.2%
COc1ccc(-c2cc(C(=O)NCc3ccccc3)no2)cc1OC,–,inactive: 14.7%
COCCOC(=O)C1=C(C)NC(=O)NC1c1cn(-c2ccccc2)nc1-c1cccs1 (stereo unspecified),–,inactive: 49.6%
COCCn1nnnc1C(c1cc2cc(C)cc(C)c2[nH]c1=O)N1CCN(c2ccccc2F)CC1 (stereo unspecified),"inconclusive: 7.38 µM [inhibitor, partial curve]",–
CCc1nc2ccccc2c(C(=O)OCC(=O)N2CC(C)OC(C)C2)c1C (stereo unspecified),"inconclusive: 9.28 µM [inhibitor, single point]",–
